Measurements: PubChem BioAssay AID330 (DTP/NCI, 2004)
The list does not hold the whole screen: it gathers tests that were run many times, whatever their T/C, doses with no T/C, and many T/C values between a quarter and a half above the control. Other doses and runs of a compound stand elsewhere. T/C gives the treated animals as a percentage of the vehicle group. Some doses have a count of surviving animals in place of a T/C: the source holds a T/C of zero for them, seemingly a mark for toxic or unscored doses. Some doses without a T/C left all or most animals alive at the check, yet need not have been tolerated: the source hardly ever lists a survival T/C far under the control, and the zero likely stands for such cases as well. Survivors were counted at the toxicity check, usually on the fifth day, unless a day is given; later deaths do not show. Schedules are NCI's codes, read here as Q, the interval in days (D) or hours (H), X, the number of doses. Some entries were tested several times; their values stand side by side, smallest first. Where survival is the endpoint, this PubChem deposit counts one and a half times the control or more as active, and values a quarter to a half above the control carry no call in these data; other NCI protocols may use other cut-offs.

System: P388 leukemia ip, CD2F1 mice, survival T/C
Assay: NCI In Vivo Anticancer Drug Screen. Data for tumor model P388 Leukemia (intraperitoneal) in CD2F1 (CDF1) mice
Conditions: T/C endpoint: median survival time, higher T/C = longer survival
[1] = dose: 200.0 mg/kg/injection, schedule: Q01DX009 (ip), vehicle: saline with Tween-80
[2] = dose: 200.0 mg/kg/injection, schedule: Q01DX005 (ip), vehicle: saline with Tween-80
[3] = dose: 240.0 mg/kg/injection, schedule: Q01DX005 (ip), vehicle: saline with Tween-80
[4] = dose: 25.0 mg/kg/injection, schedule: Q04DX002 (ip), vehicle: saline with Tween-80
[5] = dose: 50.0 mg/kg/injection, schedule: Q04DX002 (ip), vehicle: saline with Tween-80
[6] = dose: 6.25 mg/kg/injection, schedule: Q04DX002 (ip), vehicle: saline with Tween-80

With `OC(c1ccccc1)(c1ccccc1)c1ccc(C[P+](c2ccccc2)(c2ccccc2)c2ccccc2)cc1` the survivor count (dose: 6.25 mg/kg/injection, schedule: Q01DX009 (ip), vehicle: other) was 3 of 6, the survivor count (dose: 12.5 mg/kg/injection, schedule: Q01DX009 (ip), vehicle: other) was 0 of 6 and the survivor count (dose: 25.0 mg/kg/injection, schedule: Q01DX009 (ip), vehicle: other) was 0 of 6 and 2 of 6. For the same molecule, the survivor count (dose: 50.0 mg/kg/injection, schedule: Q01DX009 (ip), vehicle: other) was 0 of 6, the survivor count (dose: 100.0 mg/kg/injection, schedule: Q01DX009 (ip), vehicle: other) was 0 of 6 and the survivor count (dose: 200.0 mg/kg/injection, schedule: Q01DX009 (ip), vehicle: other) was 0 of 6. The survivor count (dose: 400.0 mg/kg/injection, schedule: Q01DX009 (ip), vehicle: other) was 0 of 6.

For `O=C(CCS(=O)(=O)CCC(=O)c1ccc2ccccc2c1)c1ccc2ccccc2c1`, the survivor count (dose: 200.0 mg/kg/injection, schedule: Q04DX003 (ip), vehicle: saline) was 6 of 6.

`COc1ccc2c(ccc3c(=O)c4c([nH]c32)CCC4)n1` was tested, and the survivor count (dose: 100.0 mg/kg/injection, schedule: Q04DX002 (ip), vehicle: saline with Tween-80) was 6 of 6, the survivor count (dose: 200.0 mg/kg/injection, schedule: Q04DX002 (ip), vehicle: saline with Tween-80) was 6 of 6 and the survivor count (dose: 400.0 mg/kg/injection, schedule: Q04DX002 (ip), vehicle: saline with Tween-80) was 6 of 6.

With `O=C1NC(=O)C(c2ccccc2)(c2ccccc2)C2CC3c4[nH]c5ccccc5c4CCN3CC12` (stereo not drawn) the survivor count (dose: 200.0 mg/kg/injection, schedule: Q01DX001 (ip), vehicle: saline) was 6 of 6 and the survivor count (dose: 400.0 mg/kg/injection, schedule: Q01DX001 (ip), vehicle: saline) was 6 of 6.

In the case of `O=C1CN=C(c2ccccn2)c2cc(Cl)ccc2N1CCO`, the survivor count (dose: 400.0 mg/kg/injection, schedule: Q01DX009 (ip), vehicle: saline with Tween-80) is reported as 3 of 6.

With `O=C1C=CC(=O)N1c1cccc2c1CCCC2` the survivor count (dose: 25.0 mg/kg/injection, schedule: Q01DX009 (ip), vehicle: saline with Tween-80) was 0 of 6, the survivor count (dose: 50.0 mg/kg/injection, schedule: Q01DX009 (ip), vehicle: saline with Tween-80) was 0 of 6 and the survivor count (dose: 100.0 mg/kg/injection, schedule: Q01DX009 (ip), vehicle: saline with Tween-80) was 0 of 6. For the same molecule, the survivor count [1] was 0 of 6.

With `C/C(=N\Nc1nc2ccccc2s1)c1ccccn1` the survivor count [2] was 3 of 6.

`CCOC(=O)C1C(=O)N(C)C(=O)N1c1ccc(C)cc1` (stereo not drawn) was tested, and the survivor count [3] was 6 of 6.

For `N#CC(C(=O)C(N)=O)c1nc2ccccc2s1` (stereo not drawn), the survivor count [2] was 0 of 6.

In the case of `CC(=O)OC1C2(CC3N4C(=O)C5(CO)SSC4(CC31O)C(=O)N5C)OC(C)C(C)(C)C2=O` (stereo not drawn), the survivor count (dose: 1.25 mg/kg/injection, schedule: Q01DX009 (ip), vehicle: saline with Tween-80) is reported as 5 of 6, the survivor count (dose: 2.5 mg/kg/injection, schedule: Q01DX009 (ip), vehicle: saline with Tween-80) is reported as 5 of 6 and the survivor count (dose: 2.5 mg/kg/injection, schedule: Q01DX009 (ip), vehicle: saline) is reported as 6 of 6. For the same molecule, the survivor count (dose: 5.0 mg/kg/injection, schedule: Q01DX009 (ip), vehicle: saline with Tween-80) was 1 of 6, the survivor count (dose: 5.0 mg/kg/injection, schedule: Q01DX009 (ip), vehicle: saline) was 0 of 6 and the survivor count (dose: 6.25 mg/kg/injection, schedule: Q01DX009 (oral), vehicle: saline) was 2 of 6. For the same molecule, the survivor count (dose: 10.0 mg/kg/injection, schedule: Q01DX009 (ip), vehicle: saline with Tween-80) was 2 of 6, the survivor count (dose: 10.0 mg/kg/injection, schedule: Q01DX009 (ip), vehicle: saline) was 0 of 6 and the survivor count (dose: 25.0 mg/kg/injection, schedule: Q01DX009 (oral), vehicle: saline) was 0 of 6.

`CN(C)CC[CH2][Sn]([CH2]CCN(C)C)([CH2]CCN(C)C)[CH2]CCN(C)C` was tested, and the survivor count [1] was 0 of 6.

In the case of `[Co].[N-]=C=S.[N-]=C=S.[N-]=C=S.[NH2-].[NH2-].[NH2-]`, the survivor count (dose: 200.0 mg/kg/injection, schedule: Q01DX005 (ip), vehicle: saline) is reported as 1 of 6, the survivor count (dose: 400.0 mg/kg/injection, schedule: Q01DX001 (ip), vehicle: saline with Tween-80) is reported as 0 of 5 and the survivor count (dose: 400.0 mg/kg/injection, schedule: Q01DX005 (ip), vehicle: saline) is reported as 0 of 6.

With `C[N+](C)(CCCCOc1c(Br)cc(Br)cc1Br)Cc1ccc([N+](=O)[O-])o1` the survivor count (dose: 100.0 mg/kg/injection, schedule: Q04DX003 (ip), vehicle: Klucel (hydroxypropylcellulose) (HPC)) was 0 of 6, the survivor count (dose: 200.0 mg/kg/injection, schedule: Q04DX003 (ip), vehicle: Klucel (hydroxypropylcellulose) (HPC)) was 0 of 6 and the survivor count (dose: 400.0 mg/kg/injection, schedule: Q04DX003 (ip), vehicle: Klucel (hydroxypropylcellulose) (HPC)) was 0 of 6.

In the case of `CCOC(=O)NC(NC(=O)OCC)c1cccnc1`, the survivor count (dose: 100.0 mg/kg/injection, schedule: Q04DX003 (ip), vehicle: saline) is reported as 6 of 6.

For `[Cl][Cu][Cl].[NH-]C1CCCC2CCC[N-]C12` (stereo not drawn), the survivor count [4] was 0 of 6 and the survivor count [5] was 1 of 6.

`O=C(Nc1ccc(S(=O)(=O)O)cc1)c1ccc([N+](=O)[O-])cc1` was tested, and the survivor count (dose: 200.0 mg/kg/injection, schedule: Q01DX009 (ip), vehicle: saline) was 6 of 6.

For `C=C1C(=O)OC2/C=C(\C)CC/C=C(/C=O)C(O)C(OC(=O)C(C)C)C12` (stereo not drawn), the T/C (dose: 10.0 mg/kg/injection, schedule: Q01DX009 (ip), vehicle: other) was 144 % of control.

For `CCc1nc(N)nc(N)c1-c1ccc(NCCCCCCN)c([N+](=O)[O-])c1`, the T/C (dose: 30.0 mg/kg/injection, schedule: Q01DX005 (ip), vehicle: saline with Tween-80) was 131 % of control, the T/C (dose: 60.0 mg/kg/injection, schedule: Q01DX005 (ip), vehicle: saline with Tween-80) was 127 and 139 % of control and the T/C (dose: 120.0 mg/kg/injection, schedule: Q01DX005 (ip), vehicle: saline with Tween-80) was 136 and 148 % of control. For the same molecule, the survivor count [3] was 0 of 6 and 1 of 6.

With `C=C(Cl)CSC(=S)N1CCOCC1` the survivor count (dose: 400.0 mg/kg/injection, schedule: Q01DX005 (ip), vehicle: saline with Tween-80) was 0 of 6.

With `CCCCCCCCCCCC[N+](C)([O-])CCCCCC[N+](C)([O-])CCCCCCCCCCCC` (stereo not drawn) the survivor count (dose: 100.0 mg/kg/injection, schedule: Q01DX009 (ip), vehicle: Klucel (hydroxypropylcellulose) (HPC)) was 6 of 6 and the survivor count (dose: 200.0 mg/kg/injection, schedule: Q01DX009 (ip), vehicle: Klucel (hydroxypropylcellulose) (HPC)) was 0 of 6.

`Cc1nnc2n1-c1ccc(Cl)cc1C(c1ccccc1)=[N+]([O-])C2` was tested, and the survivor count [1] was 4 of 6.

`CC1=C(C(=O)Nc2ccccc2C)C(c2cccc([N+](=O)[O-])c2)C(C(=O)Nc2ccccc2C)=C(C)N1` was tested, and the survivor count (dose: 120.0 mg/kg/injection, schedule: Q01DX005 (ip), vehicle: Klucel (hydroxypropylcellulose) (HPC)) was 6 of 6 and the survivor count (dose: 240.0 mg/kg/injection, schedule: Q01DX005 (ip), vehicle: Klucel (hydroxypropylcellulose) (HPC)) was 6 of 6.

For `O=C1NC(O)c2cc(Br)cc(Br)c2O1` (stereo not drawn), the survivor count (dose: 50.0 mg/kg/injection, schedule: Q01DX005 (ip), vehicle: Klucel (hydroxypropylcellulose) (HPC)) was 3 of 6, the survivor count (dose: 100.0 mg/kg/injection, schedule: Q01DX005 (ip), vehicle: Klucel (hydroxypropylcellulose) (HPC)) was 2 of 6 and the survivor count (dose: 200.0 mg/kg/injection, schedule: Q01DX005 (ip), vehicle: Klucel (hydroxypropylcellulose) (HPC)) was 0 of 6.

For `CCN=C(N)N/N=C(\C)c1ccc2c(c1)Cc1cc(/C(C)=N/NC(N)=NCC)ccc1-2`, the T/C (dose: 0.78 mg/kg/injection, schedule: Q04DX002 (ip), vehicle: saline with Tween-80) was 125 % of control, the T/C (dose: 1.56 mg/kg/injection, schedule: Q04DX002 (ip), vehicle: saline with Tween-80) was 131 and 140 % of control and the T/C (dose: 3.12 mg/kg/injection, schedule: Q04DX002 (ip), vehicle: saline with Tween-80) was 134 and 138 % of control. For the same molecule, the T/C [6] was 133 % of control, the survivor count [6] was 6 of 6 and the survivor count (dose: 12.5 mg/kg/injection, schedule: Q04DX002 (ip), vehicle: saline with Tween-80) was 5 of 6. The survivor count [4] was 1 of 6 and the survivor count [5] was 0 of 6.
